Laboratory results from PubChem BioAssay AID2685 (National Center for Advancing Translational Sciences (NCATS), 2010).
Some of the results follow. These are further read-outs of the screen, such as a control signal, another cell line or another target. No call is given for them. The list favours compounds with an active or inconclusive main result. Words in brackets tell the shape of the fitted curve; partial curves, single points and poor fits give uncertain potencies.

Test: qHTS Assay for Lipid Storage Modulators in Drosophila S3 Cells;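 as to cell number change: cells counted by Cell Tracker Red CMTPX staining in the red channel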
Settings: BODIPY lipid droplet fluorescence, 18-24 h; for cell number change: measured here: cell count max response, cells fed with added oleic acid
Method in brief: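 Drosophila S3 cells got compounds at several concentrations plus oleic acid (400 uM solution). Laser-scanning cytometry with 488 nm excitation read lipid droplets at 500-530 nm and cells at 575-640 nm. Percent activity was relative to 20 uM Triacsin C.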

[1] = measured here: lipid fluorescence (Fed channel) AC50, cells fed with added oleic acid
[2] = measured here: cell number channel AC50, cells fed with added oleic acid

Row | Compound | cell number change [%] | AC50 [1] | AC50 [2]
1 | Fc1cccc(Cl)c1CSc1nnnn1-c1ccc2c(c1)OCO2 | -20 |  | 
2 | COCCn1cnc2c(c1=O)c1nc3ccccc3nc1n2/N=C/c1cccc(OC)c1 | -16.4 | 23.1 µM [falling, partial curve] | 
3 | Nc1nc(C2C(=O)CCCC2=O)cs1 |  | 1.03 µM [falling, full curve] | 
4 | CCCn1c(N)c(C(=O)COC(=O)CNC(=O)c2ccc(C)c(C)c2)c(=O)n(C)c1=O | 13.3 | 5.17 µM [rising, partial curve] | 
5 | CC(=O)N(C1=C(Cl)C(=O)c2ccccc2C1=O)C1CCCCC1 | -29.7 |  | 
6 | CCc1cc(=O)oc2cc(C)cc(OCC(=O)NCCN3CCOCC3)c12 | -11 |  | 
7 | CS(=O)(=O)N1N=C(c2ccccc2)CC1c1ccc2nccnc2c1 (stereo not given) | 40.2 | 7.31 µM [rising, partial curve] | 29.1 µM [rising, single point]
8 | O=C(NCC1CCCO1)c1ccc(NC(=O)c2cccc(Br)c2)cc1 (stereo not given) | -9.12 |  | 
9 | CCn1c(COc2ccc(C)cc2)nnc1SCC(=O)NCc1ccco1 | -45 | 3.26 µM [falling, partial curve] | 3.66 µM [falling, full curve]
10 | COc1cc(C(=O)NC2CCN(CC(=O)NC3CCCCC3C)CC2)cc(OC)c1OC (stereo not given) | 11.8 |  | 
11 | COc1cc(C(=O)Nc2ccc(Oc3ncnc4sc(-c5ccccc5)cc34)cc2)cc(OC)c1OC | 84.1 | 13 µM [rising, partial curve] | 4.61 µM [rising, partial curve]
12 | CC1CCCC(C)N1/N=C/c1ccccc1Br (stereo not given) | -33.1 | 29.1 µM [falling, single point] | 29.1 µM [falling, single point]
13 | C/C(=N\NC(=O)CCCOc1ccc(Cl)cc1C)c1ccc(C)o1 | 20.3 |  | 2.91 µM [rising, partial curve]
14 | CC1CCN(C(=O)C(C)OC(=O)CSc2ccc([N+](=O)[O-])cc2)CC1 (stereo not given) | -3.63 | 6.51 µM [falling, single point] | 
15 | Cc1nc2ccccc2c(=O)n1/N=C/C=C/c1ccccc1 | 17 |  | 0.82 µM [rising, full curve, poor fit]
16 | Cc1sc(/N=C/c2c(O)ccc3ccccc23)c(C#N)c1C | -33.1 | 29.1 µM [falling, single point] | 29.1 µM [falling, single point]
17 | CCOc1cccc(NC(=O)CSc2sc3c(O)cc(=O)[nH]c3c2C#N)c1 | 19.7 | 29.1 µM [rising, single point] | 
18 | CCOC(=O)C1=C(CC)Nc2ccccc2N=C1NC(=O)Cn1cnc2ccccc2c1=O |  |  | 1.64 µM [rising, partial curve]
19 | CCOC(=O)c1c(NC(=O)CSc2nnc(-c3ccco3)o2)sc(C)c1C | -14.3 | 20.6 µM [falling, partial curve, poor fit] | 
20 | COc1ccccc1NC(=O)C(=O)N/N=C(\C)CC(=O)Nc1ccc(OCc2ccccc2)cc1 | -0.368 | 3.26 µM [falling, partial curve] | 

Three entries out of the list, ordered by heavy-atom count, falling.
Row | Compound | cell number change [%] | AC50 [1] | AC50 [2]
11 | COc1cc(C(=O)Nc2ccc(Oc3ncnc4sc(-c5ccccc5)cc34)cc2)cc(OC)c1OC | 84.1 | 13 µM [rising, partial curve] | 4.61 µM [rising, partial curve]
2 | COCCn1cnc2c(c1=O)c1nc3ccccc3nc1n2/N=C/c1cccc(OC)c1 | -16.4 | 23.1 µM [falling, partial curve] | 
12 | CC1CCCC(C)N1/N=C/c1ccccc1Br (stereo not given) | -33.1 | 29.1 µM [falling, single point] | 29.1 µM [falling, single point]

The list continues:

Row | Compound | cell number change [%] | AC50 [1] | AC50 [2]
21 | COc1ccc(-c2[nH]ncc2Oc2ccccc2OC)c(O)c1 | -40.1 |  | 29.1 µM [falling, single point]
22 | Cc1n[nH]c(=O)c2c(NC(=O)CSc3nncs3)oc(C)c12 | 32.8 |  | 32.6 µM [rising, single point]
23 | COc1ccc(OC)c(NC(=O)c2cccnc2Sc2ccccc2)c1 | 8.68 | 20.6 µM [rising, single point] | 
24 | COc1ccc(CCNC(=O)c2cc3c(cc2Cl)N2CCCCCC2=NS3(=O)=O)cc1 | 100 |  | 29.1 µM [rising, single point]
25 | CCOc1ccccc1CN1CCN(Cc2csc(C(C)=O)c2)CC1CCO (stereo not given) | -23.8 |  | 
26 | CC(C)(C)C1=CC=C(C(C)(C)C)C(=O)C1=O | -57.2 | 20.6 µM [falling, partial curve, poor fit] | 16.4 µM [falling, partial curve]
27 | COc1ccc2[nH]c(=O)cc(C(=O)O)c2c1 | 21.8 | 7.31 µM [rising, partial curve, poor fit] | 
28 | CCS(=O)(=O)c1nc(S(=O)(=O)c2ccc(C)cc2)c(N2CC(C)CC(C)C2)s1 (stereo not given) | -13.5 | 32.6 µM [falling, single point] | 
29 | COc1ccccc1-n1c(SCC(=O)O)nnc1-c1ccc(S(=O)(=O)N2CCCCC2)cc1 | 4.72 | 29.1 µM [falling, single point] | 
30 | C/C=C/c1ccc(OCC(=O)OCc2csc(CC(=O)Nc3ccccc3C)n2)c(OC)c1 | -4.97 |  | 
31 | CCN(CC(=O)Nc1cc(Cl)ccc1C)C(=O)CN1C(=O)NC(CC)(c2ccccc2)C1=O (stereo not given) | 25 |  | 0.651 µM [falling, partial curve, poor fit]
32 | O=C(CCCn1c(=O)c2ccccc2n(CC(=O)NCc2ccco2)c1=O)NCc1ccco1 | 4.06 | 4.11 µM [rising, single point] | 
33 | Cc1ccc(S(=O)(=O)N2[C@@H](c3ccccc3F)C(C(=O)O)=CC[C@H]2c2cccs2)cc1 | 0.765 | 29.1 µM [rising, single point] | 
34 | COc1cc(C2CC(=O)N3CN(c4ccccc4C)CSC3=C2C#N)cc(OC)c1OC (stereo not given) | -20.6 | 9.2 µM [rising, partial curve, poor fit] | 
35 | CCOc1ccc(S(=O)(=O)N2CCOCC2)c2ccccc12 | -19.7 | 0.00461 µM [falling, full curve, poor fit] | 
36 | CS(=O)(=O)Nc1nnc(CCc2ccccc2)s1 | 18.5 |  | 
37 | O=C1C(Nc2cccc(O)c2)=C(N2CCCCC2)C(=O)c2ccccc21 | -61.9 | 20.6 µM [falling, single point] | 20.6 µM [falling, single point]
38 | Cc1ccc(NC(=O)CN(c2ccc(Cl)cc2)S(=O)(=O)c2cc([N+](=O)[O-])ccc2Cl)c(C)c1 | 114 | 25.9 µM [rising, partial curve] | 23.1 µM [rising, partial curve]
39 | O=C(COC(=O)c1nc(Cl)ccc1Cl)NC1CCS(=O)(=O)C1 (stereo not given) | -2.94 | 6.51 µM [falling, partial curve, poor fit] | 
40 | Cc1c(N=CC=Nc2c(C)n(C)n(-c3ccccc3)c2=O)c(=O)n(-c2ccccc2)n1C | -5.14 |  | 

Row | Compound | cell number change [%] | AC50 [1] | AC50 [2]
41 | Cn1c2c(c(=O)c3ccccc31)CCC(C)(C)O2 | -25.6 | 29.1 µM [falling, single point] | 
42 | Cc1ccc(CN(C)C(=O)CN2C(=O)NC3(CCCc4ccccc43)C2=O)c(C)c1 (stereo not given) | -1.41 |  | 
43 | COc1cc(NC(=S)N2CCc3ccccc3C2)cc(OC)c1 |  | 0.651 µM [rising, partial curve, poor fit] | 0.82 µM [rising, single point]
44 | O=C(COC(=O)/C=C/c1ccc(F)cc1)Nc1ccc2[nH]c(=O)[nH]c2c1 | 27.1 | 6.51 µM [falling, single point] | 
45 | O=C(c1ccco1)n1nc(NCc2ccccc2)nc1NCc1ccccc1 | -30.7 | 0.731 µM [rising, full curve, poor fit] | 14.6 µM [falling, single point]
46 | CC(C)Cn1c2ccccc2c2cc(C(=O)O)ccc21 | 1.87 | 6.51 µM [falling, single point] | 
47 | CC(C)(C)Oc1ncc(Br)c(OC(C)(C)C)n1 | -1.85 | 0.517 µM [falling, full curve, poor fit] | 
48 | COc1ccc(CC(C)Nc2ccccc2F)cc1 (stereo not given) | -17.2 | 13 µM [rising, partial curve] | 
49 | Cc1cc(C(=O)OCC(=O)NCCC(C)C)c2ccccc2n1 |  | 16.4 µM [rising, partial curve] | 
50 | Cc1cccc(C(=O)c2cn[nH]c2-c2ccc(C)cc2O)c1 | -21.5 |  | 
51 | NC(N)=NS(=O)(=O)c1ccc(N/C=C/C(=O)c2ccc(Cl)c(Cl)c2)cc1 | 31.7 | 29.1 µM [rising, single point] | 25.9 µM [rising, single point]
52 | Cc1nnc(NC(=O)C(C)Sc2nncn2C)s1 (stereo not given) | -122 | 16.4 µM [falling, partial curve] | 14.6 µM [falling, partial curve]
53 | COC(=O)c1cc2occc2n1Cc1nc(-c2ccc(Cl)cc2)oc1C | -15 |  | 0.13 µM [falling, full curve, poor fit]
54 | COc1ccccc1CNC(=O)/C=C/c1cc2c(cc1Br)OCO2 | 1.61 |  | 
55 | C=CCc1cccc(/C=N/NC(=O)CNc2ccccc2OC)c1O | -37.7 | 29.1 µM [falling, single point] | 29.1 µM [falling, single point]
56 | Cc1nc(N2CCN(Cc3nc4ccccc4[nH]3)CC2)c2oc3ccccc3c2n1 |  | 0.651 µM [rising, partial curve] | 0.651 µM [rising, partial curve]
57 | O=C(CSc1ncc(-c2ccccc2)[nH]1)Nc1cccc(O)c1 | 8.75 |  | 
58 | CCOc1ncccc1C(=O)NCCN1C(=O)S/C(=C/c2cccs2)C1=O | -38.7 | 3.66 µM [falling, partial curve] | 23.1 µM [falling, single point]
59 | COc1ccc(-c2csc(NC(=O)c3ccccc3OC)c2C(=O)O)cc1OC | 3.23 | 0.00517 µM [falling, full curve, poor fit] | 
